In the supplement of paper PMC6078165:
The reference is the same well before dosing, and untreated signal decays as well.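 Fibroblast labels denote human fibroblasts, mainly primary ones from uterus (C12385, HUF), lung (H6013), bone (Hs27A), adrenal (HADF) and skin (WS1), plus mammary HMF and breast cancer-associated Hs343T. Cancer cells are basal-like or mesenchymal-like triple-negative breast cancer lines. A hit is a response shift exceeding 3x replicate standard deviation. The tissue of the other fibroblasts is not given here.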

Tested on: BT20
Experiment: relative JC-1 red fluorescence (viability) vs pre-drug, coculture with fibroblast (fraction); higher = more viable cancer cells
Protocol: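 JC-1 labelled TNBC cells cocultured 1:1 (1,500 cells each) with CellTrace Violet stained primary or stromal fibroblasts in 384-well plates in FluoroBrite medium, treated with one of 42 anticancer drugs at 0.1, 1, 10 or 100 uM. JC-1 red fluorescence (mitochondrial integrity in cancer cells only) was read by plate reader every 8 h for 72 h. Values are normalised to each well's pre-drug value. The stock of one drug was tenfold lower, so its dose labels may be too high.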

CN(Cc1cnc2nc(N)nc(N)c2n1)c1ccc(C(=O)N[C@@H](CCC(=O)O)C(=O)O)cc1 [Methotrexate]
relative JC-1 red fluorescence
Conditions | 8 h | 16 h | 24 h | 32 h | 40 h | 48 h | 56 h | 64 h | 72 h
10 µM, coculture fibroblast: C12385 | 0.918 | 0.8469 | 0.8445 | 0.8181 | 0.781 | 0.762 | 0.74 | 0.7229 | 0.7072
10 µM, coculture fibroblast: H6013 | 0.917 | 0.939 | 0.921 | 0.811 | 0.8937 | 0.826 | 0.82 | 0.865 | 0.941
10 µM, coculture fibroblast: H6019 | 0.926 | 0.898 | 0.899 | 0.846 | 0.809 | 0.793 | 0.776 | 0.764 | 0.759
10 µM, coculture fibroblast: H6076 | 0.955 | 0.882 | 0.831 | 0.7999 | 0.77596 | 0.745 | 0.745 | 0.746 | 0.746
10 µM, coculture fibroblast: H6231 | 0.761 | 0.9529 | 0.8312 | 0.7652 | 0.7103 | 0.663 | 0.621 | 0.603 | 0.5584
10 µM, coculture fibroblast: HADF | 0.985 | 0.855 | 0.8376 | 0.7891 | 0.775 | 0.739 | 0.742 | 0.726 | 0.699
10 µM, coculture fibroblast: HCFa | 0.913 | 0.867 | 0.846 | 0.799 | 0.768 | 0.735 | 0.713 | 0.696 | 0.666
10 µM, coculture fibroblast: HCPF | 0.761 | 0.893 | 0.809 | 0.745 | 0.706 | 0.663 | 0.609 | 0.597 | 0.56
10 µM, coculture fibroblast: HHSteC | 0.963 | 0.846 | 0.747 | 0.857 | 0.896 | 0.931 | 0.907 | 0.873 | 0.834
10 µM, coculture fibroblast: HMF | 0.86066 | 0.942 | 0.808 | 0.73 | 0.665 | 0.6015 | 0.5474 | 0.509 | 0.471
10 µM, coculture fibroblast: HPFa | 0.938 | 0.851 | 0.857 | 0.781 | 0.76 | 0.728 | 0.721 | 0.706 | 0.677
10 µM, coculture fibroblast: HUF | 0.916 | 0.846 | 0.827 | 0.756 | 0.704 | 0.664 | 0.642 | 0.624 | 0.609
10 µM, coculture fibroblast: Hs5 | 0.931 | 0.9 | 0.829 | 0.779 | 0.748 | 0.719 | 0.704 | 0.684 | 0.6805
10 µM, coculture fibroblast: Hs27A | 0.782 | 0.829 | 0.9577 | 0.9788 | 0.923 | 0.923 | 0.902 | 0.886 | 0.851
10 µM, coculture fibroblast: Hs343T | 0.918 | 0.903 | 0.784 | 0.726 | 0.664 | 0.599 | 0.5169 | 0.481 | 0.429
10 µM, coculture fibroblast: WS1 | 0.873 | 0.772 | 0.744 | 0.675 | 0.624 | 0.599 | 0.574 | 0.548 | 0.533
100 µM, coculture fibroblast: C12385 | 0.909 | 0.831 | 0.805 | 0.747 | 0.704 | 0.673 | 0.6474 | 0.62 | 0.598
100 µM, coculture fibroblast: H6013 | 0.92221 | 0.886 | 0.8455 | 0.7956 | 0.75731 | 0.741 | 0.74026 | 0.7211 | 0.71
100 µM, coculture fibroblast: H6019 | 0.867 | 0.802 | 0.782 | 0.71 | 0.665 | 0.641 | 0.602 | 0.5724 | 0.557
100 µM, coculture fibroblast: H6076 | 0.931 | 0.849 | 0.7748 | 0.733 | 0.726 | 0.694 | 0.695 | 0.696 | 0.684
100 µM, coculture fibroblast: H6231 | 0.9265 | 0.8843 | 0.7654 | 0.711 | 0.6662 | 0.616 | 0.577 | 0.554 | 0.536
100 µM, coculture fibroblast: HADF | 0.963 | 0.912 | 0.847 | 0.805 | 0.768 | 0.712 | 0.684 | 0.656 | 0.624
100 µM, coculture fibroblast: HCFa | 0.903 | 0.854 | 0.8232 | 0.7598 | 0.7225 | 0.6846 | 0.66 | 0.642 | 0.615
100 µM, coculture fibroblast: HCPF | 0.934 | 0.874 | 0.79 | 0.734 | 0.686 | 0.638 | 0.593 | 0.564 | 0.522
100 µM, coculture fibroblast: HHSteC | 0.895 | 0.884 | 0.891 | 0.827 | 0.793 | 0.76 | 0.749 | 0.731 | 0.714
100 µM, coculture fibroblast: HMF | 0.9565 | 0.8563 | 0.756 | 0.696 | 0.657 | 0.61 | 0.578 | 0.558 | 0.522
100 µM, coculture fibroblast: HPFa | 0.9378 | 0.871 | 0.864 | 0.788 | 0.764 | 0.734 | 0.715 | 0.695 | 0.665
100 µM, coculture fibroblast: HUF | 0.904 | 0.839 | 0.822 | 0.751 | 0.708 | 0.673 | 0.663 | 0.657 | 0.649
100 µM, coculture fibroblast: Hs5 | 0.972 | 0.8932 | 0.8304 | 0.7809 | 0.738 | 0.699 | 0.677 | 0.668 | 0.655
100 µM, coculture fibroblast: Hs27A | 0.781 | 0.951 | 0.813 | 0.921 | 0.898 | 0.894 | 0.888 | 0.885 | 0.856
100 µM, coculture fibroblast: Hs343T | 0.926 | 0.882 | 0.796 | 0.723 | 0.668 | 0.607 | 0.556 | 0.531 | 0.495
100 µM, coculture fibroblast: WS1 | 0.8852 | 0.804 | 0.784 | 0.721 | 0.676 | 0.641 | 0.619 | 0.592 | 0.578
